{"source": "paper PMC12745170", "binders": {"B1": {"name": "RNF39 in 293T cell lysate (co-IP with Flag-RINT1 constructs) (protein, UniProt Q9H2S5 1-420)", "chain": "MWWRDLTRLRLWLKREAIPGEGRKAAKVNAGVGEKGIYTASSRGGPPSARSKAVTVVAEGAASRSWLSMDAPELGPGLVERLEQLATCPLCGGSFEDPVLLACEHSFCRACLARRWGTPPATGTEASPTACPCCGLPCPRRSLRSNVRLAVEVRISRELREKLAEPGARAGRRRGGRIPTMGCLDLPGEDMRKTWRRFEVPTSKSSNSEDDLPEDYPVVKKMLHRLTADLTLDPGTAHRRLLISADRRSVQLAPPGTPAPPDGPKRFDQLPAVLGAQGFGAGRHCWEVETADAASCRDSSGEDADDEESHYAVGAAGESVQRKGCVRLCPAGAVWAVEGRGGRLWALTAPEPTLLGGVEPPPRRIRVDLDWERGRVAFYDGRSLDLLYAFQAPGPLGERIFPLFCTCDPRAPLRIVPAES"}}, "target": "Flag-tagged RINT1 C-terminal domain, construct C (human)", "assay": "co-IP; 293T cells transfected with Flag-tagged RINT1 deletion constructs (Full, C, N) for 36 h; lysates immunoprecipitated with anti-Flag resin, immunoblotting", "note": "These are yes or no findings as the source states them, for the method shown. Binding seen in cells or lysates may run through a third protein. Binding calls can cover weak binding; strength is not graded here. Tags and fused reporters may be left off the sequences shown.", "data": [{"binder": "B1", "values": [{"measurement": "binding", "result": "binds"}]}]}
